Data source: PubChem BioAssay AID1508588 (Peter MacCallum Cancer Centre, 2020)

Test: 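Genome-wide search for knock-downs that heighten vemurafenib action in melanoma cells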 (primary screen)
Cells: human WM266.4 melanoma cells (BRAF V600 mutant)
Reagents: siRNA pool against human genes, 40 nM
Timing: 96 h from transfection to read-out
Challenge: vemurafenib 300 nM (about IC25), added 48 h after transfection, for 48 h; comparison arm got DMSO vehicle only
Measured: 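Ratios to non-targeting siRNA for cell gain, counted as DAPI nuclei after minus before drug and averaged over two replicates, and for absorbance-read medium lactate per cell; both binned into fold-change classes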
Direction: cell gain with vemurafenib: higher = more cell gain than with non-targeting siRNA; lactate per cell with vemurafenib: higher = more lactate made per cell
Active means: 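a knock-down counts as enhancing when its fold-change classes with vehicle and with vemurafenib, taken together, show a stronger drug effect on cell gain or lactate per cell; exact class pairs not stated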
Meaning of the calls: active = enhances vemurafenib effect; inactive = no enhancement seen
The whole screen tested about 18,000 reagents; below is a random part of them. Over the whole deposit, 790 (4.4%) are marked active. 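Calls rest on a combination of fold-change classes in drug and vehicle arms, not all shown here.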 Unmarked entries are inactive.

| target | PubChem SID | cell gain with vemurafenib | lactate per cell with vemurafenib |
| --- | --- | --- | --- |
| CPE (carboxypeptidase E) | SID134311250 | 0.97 | 0.82 |
| ANGPT4 (angiopoietin 4) | SID135621445 | 0.38 | 1.26 |
| CACNG2 (calcium voltage-gated channel auxiliary subunit gamma 2) | SID152154072 | 0.66 | 0.95 |
| CBX8 (chromobox 8) | SID134313232 | 0.56 | 0.57 |
| GUCA1B (guanylate cyclase activator 1B) | SID135622891 | 1.03 | 0.58 |
| RORC (RAR related orphan receptor C) | SID134309893 | 0.71 (active) | 0.68 |
| SHROOM2 (shroom family member 2) | SID135622151 | 0.54 | 0.95 |
| LRRC18 (leucine rich repeat containing 18) | SID152149662 | 0.26 | 1.29 |
| H2BC4 (H2B clustered histone 4) | SID134315782 | 0.74 (active) | 0.13 |
| TASP1 (taspase 1) | SID152149237 | 0.36 | 0.79 |
| KLF17 (KLF transcription factor 17) | SID152156310 | 1.02 | 0.97 |
| ADCK5 (aarF domain containing kinase 5) | SID56479281 | 0.5 | 1.69 |
| SIPA1L2 (signal induced proliferation associated 1 like 2) | SID135624253 | 0.24 | 0.82 |
| CCDC110 (coiled-coil domain containing 110) | SID152152194 | 0.45 | 1.6 |
| KRT6A (keratin 6A) | SID152154812 | 0.15 | 1.82 |
| BCL9 (BCL9 transcription coactivator) | SID152147091 | 0.24 | 0.86 |
| NPS (neuropeptide S) | SID135625611 | 0.77 | 0.5 |
| RAB22A (RAB22A, member RAS oncogene family) | SID134323019 | 0.53 | 0.78 |
| S100G (S100 calcium binding protein G) | SID152147689 | 0.38 | 1.02 |
| ASF1B (anti-silencing function 1B histone chaperone) | SID152152399 | 0.41 | 1.27 |
| PRDM14 (PR/SET domain 14) | SID152156326 | 0.9 | 0.71 |
| SMS (spermine synthase) | SID152148218 | 0.22 | 1.22 |
| HYAL1 (hyaluronidase 1) | SID134315016 | 0.54 | 0.98 |
| ZNF415 (zinc finger protein 415) | SID134312143 | 0.55 | 0.59 |
| SLFN5 (schlafen family member 5) | SID152147471 | 1.03 | 0.4 |
| INPP5A (inositol polyphosphate-5-phosphatase A) | SID152151539 | 0.62 (active) | 0.46 |
| FAXDC2 (fatty acid hydroxylase domain containing 2) | SID152154305 | 0.6 | 0.76 |
| BCL2L10 (BCL2 like 10) | SID134310421 | 0.83 | 0.8 |
| CHRAC1 (chromatin accessibility complex subunit 1) | SID134314374 | 0.56 | 0.5 |
| ACSF3 (acyl-CoA synthetase family member 3) | SID135623398 | 0.17 (active) | -0.16 |
| OR4A5 (olfactory receptor family 4 subfamily A member 5) | SID152150852 | 0.6 | 0.77 |
| BCO2 (beta-carotene oxygenase 2) | SID152156346 | 0.65 | 1.52 |
| ZWINT (ZW10 interacting kinetochore protein) | SID152150433 | 0.56 | 2.43 |
| NSMCE4A (NSE4A component of SMC5/6 complex) | SID134324249 | 0.8 | 0.7 |

Copied from the entries so far (5 entries):
| target | PubChem SID | cell gain with vemurafenib | lactate per cell with vemurafenib |
| --- | --- | --- | --- |
| ACSF3 (acyl-CoA synthetase family member 3) | SID135623398 | 0.17 (active) | -0.16 |
| OR4A5 (olfactory receptor family 4 subfamily A member 5) | SID152150852 | 0.6 | 0.77 |
| BCO2 (beta-carotene oxygenase 2) | SID152156346 | 0.65 | 1.52 |
| ZWINT (ZW10 interacting kinetochore protein) | SID152150433 | 0.56 | 2.43 |
| NSMCE4A (NSE4A component of SMC5/6 complex) | SID134324249 | 0.8 | 0.7 |
